{"sequences": {"note": "By UniProt entry, the sequences of proteins in these tests, tags left out.", "UniProt Q63564": "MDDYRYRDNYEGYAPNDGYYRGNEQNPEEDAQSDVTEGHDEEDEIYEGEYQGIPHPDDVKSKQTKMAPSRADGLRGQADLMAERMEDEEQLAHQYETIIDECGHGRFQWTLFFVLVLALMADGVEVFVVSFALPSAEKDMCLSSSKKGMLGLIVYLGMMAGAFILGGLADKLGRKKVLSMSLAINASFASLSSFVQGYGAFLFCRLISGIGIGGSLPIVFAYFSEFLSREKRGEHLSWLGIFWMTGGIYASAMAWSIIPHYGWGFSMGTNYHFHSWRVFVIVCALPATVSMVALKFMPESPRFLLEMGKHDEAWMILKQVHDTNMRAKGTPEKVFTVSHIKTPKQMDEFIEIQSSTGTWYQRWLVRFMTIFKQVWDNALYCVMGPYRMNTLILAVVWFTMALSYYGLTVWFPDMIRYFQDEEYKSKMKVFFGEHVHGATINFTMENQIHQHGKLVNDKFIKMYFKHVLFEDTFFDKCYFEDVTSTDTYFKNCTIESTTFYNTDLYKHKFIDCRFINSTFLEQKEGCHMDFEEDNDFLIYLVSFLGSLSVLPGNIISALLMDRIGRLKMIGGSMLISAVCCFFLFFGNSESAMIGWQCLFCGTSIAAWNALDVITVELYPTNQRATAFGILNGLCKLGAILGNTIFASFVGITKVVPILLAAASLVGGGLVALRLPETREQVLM", "UniProt P07825": "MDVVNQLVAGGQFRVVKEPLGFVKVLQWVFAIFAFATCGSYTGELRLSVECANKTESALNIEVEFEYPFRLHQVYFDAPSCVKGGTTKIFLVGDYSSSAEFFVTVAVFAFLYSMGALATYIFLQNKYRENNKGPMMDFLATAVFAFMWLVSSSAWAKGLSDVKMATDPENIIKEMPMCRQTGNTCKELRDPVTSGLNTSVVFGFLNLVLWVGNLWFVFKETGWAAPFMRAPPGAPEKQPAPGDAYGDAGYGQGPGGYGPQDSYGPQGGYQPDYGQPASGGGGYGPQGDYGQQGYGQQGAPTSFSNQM"}, "source": "paper PMC7396582", "note": "Results are given in words; binding and its absence hold for the method and conditions named. In cells and extracts the contact can be indirect. A yes stands for co-enrichment or nearness to the bait. Other partners may have been found."}
{"biological_target": "T1, M6a-loops (rat) (UniProt Q812E9)", "T1 sequence (chain, biotin on the BAP (sec-BirA from the pBig plasmid))": "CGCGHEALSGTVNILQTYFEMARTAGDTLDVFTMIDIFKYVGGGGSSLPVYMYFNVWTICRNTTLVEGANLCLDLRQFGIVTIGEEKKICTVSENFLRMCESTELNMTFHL", "test": "affinity purification with mass spectrometry; M6a-loops (10-25 ug, from concentrated supernatant) held by anti-SV5-mAb cross-linked to protein A magnetic beads (1 h, room temperature); incubated with clarified pooled rat hippocampi extract (P14, P21, P30; 1% Triton X-100 in PBS; 200-350 ug) overnight at 4 C; washed three times with PBS-T; eluted in SDS buffer with DTT; TMT/MS; mock: M6a-loops with protein A beads without anti-SV5; three co-IPs with two replicates each"}
{"molecule": "synapsin 1 (from UniProt P09951 1-704)", "binding": "binds"}
{"molecule": "synaptic vesicle glycoprotein 2B (from UniProt Q63564 1-683)", "binding": "binds"}
{"molecule": "synaptophysin (from UniProt P07825 1-307)", "binding": "binds"}
{"molecule": "Slc4a4 (protein, UniProt Q9JI66 1-1079) MEDEAVLDRGASFLKHVCDEEEVEGHHTIYIGVHVPKSYRRRRRHKRKAGHKEKKEKERISENYSDKSDVENADESSSSILKPLISPAAERIRFILGEEDDSPAPPQLFTELDELLAVDGQEMEWKETARWIKFEEKVEQGGERWSKPHVATLSLHSLFELRTCMEKGSIMLDREASSLPQLVEMIADHQIETGLLKPDLKDKVTYTLLRKHRHQTKKSNLRSLADIGKTVSSASRMFSNPDNGSPAMTHRNLTSSSLNDISDKPEKDQLKNKFMKKLPRDAEASNVLVGEVDFLDTPFIAFVRLQQAVMLGALTEVPVPTRFLFILLGPKGKAKSYHEIGRAIATLMSDEVFHDIAYKAKDRHDLIAGIDEFLDEVIVLPPGEWDPAIRIEPPKSLPSSDKRKNMYSGGENVQMNGDTPHDGGHGGGGHGDCEELQRTGRFCGGLIKDIKRKAPFFASDFYDALNIQALSAILFIYLATVTNAITFGGLLGDATDNMQGVLESFLGTAVSGAIFCLFAGQPLTILSSTGPVLVFERLLFNFSKDHSFDYLEFRLWIGLWSAFMCLILVATDASFLVQYFTRFTEEGFSSLISFIFIYDAFKKMIKLADYYPINSDFRVGYNTHFSCACLPPDPVNLSVSNDTTLAPEDLPTVSSTDMYHNATFDWAYLSKKECVKFGGKLVGNNCDFVPDITLMSFILFLGTYTSSMAMKKFKTSRYFPTTARKLISDFAIILSILIFCVIDALVGVDTPKLIVPSEFKPTSPHRGWFVPPFGGNPWWVCLAAAIPALLVTILIFMDQQITAVIVNRKEHKLKKGAGYHLDLFWVAILMVVCSFMALPWYVAATVISIAHIDSLKMETETSAPGEQPKFLGVREQRVTGTLVFILTGLSVFMAPILKFIPMPVLYGVFLYMGVASLNGVQFMDRLKLLLMPLKHQPDFIYLRHVPLRRVHLFTSLQVLCLALLWILKSTVAAIIFPVMILALVAVRKGMDYLFSQHDLSFLDDVIPEKDKKKKEDEKKKKKKKGSLDSDNDDSDCPYSEKVPSIKIPMDITEQQPFLSDNKPLDRERSSTFLERHTSC", "binding": "binds"}
{"molecule": "Slc1a3 (protein, UniProt P24942 1-543) MTKSNGEEPRMGSRMERFQQGVRKRTLLAKKKVQNITKEDVKSYLFRNAFVLLTVSAVIVGTILGFALRPYKMSYREVKYFSFPGELLMRMLQMLVLPLIISSLVTGMAALDSKASGKMGMRAVVYYMTTTIIAVVIGIIIVIIIHPGKGTKENMYREGKIVQVTAADAFLDLIRNMFPPNLVEACFKQFKTSYEKRSFKVPIQANETLLGAVINNVSEAMETLTRIREEMVPVPGSVNGVNALGLVVFSMCFGFVIGNMKEQGQALREFFDSLNEAIMRLVAVIMWYAPLGILFLIAGKILEMEDMGVIGGQLAMYTVTVIVGLLIHAVIVLPLLYFLVTRKNPWVFIGGLLQALITALGTSSSSATLPITFKCLEENNGVDKRITRFVLPVGATINMDGTALYEALAAIFIAQVNNFDLNFGQIITISITATAASIGAAGIPQAGLVTMVIVLTSVGLPTDDITLIIAVDWFLDRLRTTTNVLGDSLGAGIVEHLSRHELKNRDVEMGNSVIEENEMKKPYQLIAQDNEPEKPVADSETKM", "binding": "binds"}
{"molecule": "Slc12a5 (protein, UniProt Q63633 1-1139) MSRRFTVTSLPPAASAASADPESRRHSVADPRRLPREDVKGDGNPKESSPFINSTDTEKGREYDGRNMALFEEEMDTSPMVSSLLSGLANYTNLPQGSKEHEEAENNEGGKKKPVQAPRMGTFMGVYLPCLQNIFGVILFLRLTWVVGIAGIMESFCMVFICCSCTMLTAISMSAIATNGVVPAGGSYYMISRSLGPEFGGAVGLCFYLGTTFAGAMYILGTIEILLAYLFPAMAIFKAEDASGEAAAMLNNMRVYGTCVLTCMATVVFVGVKYVNKFALVFLGCVILSILAIYAGVIKSAFDPPNFPICLLGNRTLSRHGFDVCAKLAWEGNETVTTRLWGLFCSSRLLNATCDEYFTRNNVTEIQGIPGAASGLIKENLWSSYLTKGVIVERRGMPSVGLADGTPVDMDHPYVFSDMTSYFTLLVGIYFPSVTGIMAGSNRSGDLRDAQKSIPTGTILAIATTSAVYISSVVLFGACIEGVVLRDKFGEAVNGNLVVGTLAWPSPWVIVIGSFFSTCGAGLQSLTGAPRLLQAISRDGIVPFLQVFGHGKANGEPTWALLLTACICEIGILIASLDEVAPILSMFFLMCYMFVNLACAVQTLLRTPNWRPRFRYYHWTLSFLGMSLCLALMFICSWYYALVAMLIAGLIYKYIEYRGAEKEWGDGIRGLSLSAARYALLRLEEGPPHTKNWRPQLLVLVRVDQDQNVVHPQLLSLTSQLKAGKGLTIVGSVLEGTFLDNHPQAQRAEESIRRLMEAEKVKGFCQVVISSNLRDGVSHLIQSGGLGGLQHNTVLVGWPRNWRQKEDHQTWRNFIELVRETTAGHLALLVTKNVSMFPGNPERFSEGSIDVWWIVHDGGMLMLLPFLLRHHKVWRKCKMRIFTVAQMDDNSIQMKKDLTTFLYHLRITAEVEVVEMHESDISAYTYEKTLVMEQRSQILKQMHLTKNEREREIQSITDESRGSIRRKNPANTRLRLNVPEETACDNEEKPEEEVQLIHDQSAPSCPSSSPSPGEEPEGEGETDPEKVHLTWTKDKSAAQKNKGPSPVSSEGIKDFFSMKPEWENLNQSNVRRMHTAVRLNEVIVNKSRDAKLVLLNMPGPPRNRNGDENYMEFLEVLTEQLDRVMLVRGGGREVITIYS", "binding": "binds"}
{"molecule": "Syngr3 (protein, UniProt D4ABK1 1-319) MSPFPTLSYGGRASGKDQGGGAGLRPWRMDLVGGAGSAPPRAPPPQPTRAPGRRRQRQQHPQHQQPQHQPWEVSGRAGRWDKRTEGTGPAMEGASFGAGRAGAAFDPVSFAQRPQTLLRVVSWVFSIAVFGPIVNEGYVNSDSGPELRCVFNGNAGACRFGVVLGLGAFIACVAFLLLDVRFQQISSVRDRRRAVLLDLGFSGVWSFLWFVGFCFLTNQWQRTAPGPGTAQAGDAARAAIAFSFFSILSWVALTVKALQRFRLGTDMSLFATDQLGTGAAQAYPGYPVGSGVEGTETYQSPPFTETLDTSPKGYQVPAY", "binding": "binds"}
{"molecule": "Cntnap1 (protein, UniProt P97846 21-1381) WGYYGCNEELVGPLYARSLGASSYYGLFTTARFARLHGISGWSPRIGDPNPWLQIDLMKKHRIRAVATQGAFNSWDWVTRYMLLYGDRVDSWTPFYQQGHNATFFGNVNDSAVVRHDLHYHFTARYIRIVPLAWNPRGKIGLRLGIYGCPYTSNILYFDGDDAISYRFQRGASQSLWDVFAFSFKTEEKDGLLLHTEGSQGDYVTLELQGAHLLLHMSLGSSPIQPRPGHTTVSAGGVLNDLSWHYVRVDRYGREANLTLDGYVHRFVLNGDFERLNLENEIFIGGLVGAARKNLAYRHNFRGCIENVIYNRINIAEMAVQRHSRITFEGNVAFRCLDPVPHPINFGGPHNFVQVPGFPRRGRLAVSFRFRTWDLTGLLLFSRLGDGLGHVELMLSEGQVNVSIAQTGRKKLQFAAGYRLNDGFWHEVNFVAQENHAVISIDDVEGAEVRVSYPLLIRTGTSYFFGGCPKPASRWGCHSNQTAFHGCMELLKVDGQLVNLTLVEFRKLGYFAEVLFDTCGITDRCSPNMCEHDGRCYQSWDDFICYCELTGYKGVTCHEPLYKESCEAYRLSGKYSGNYTIDPDGSGPLKPFVVYCDIRENRAWTVVRHDRLWTTRVTGSSMDRPFLGAIQYWNASWEEVSALANASQHCEQWIEFSCYNSRLLNTAGGYPYSFWIGRNEEQHFYWGGSQPGIQRCACGLDQSCIDPALHCNCDADQPQWRTDKGLLTFVDHLPVTQVVIGDTNRSSSEAQFFLRPLRCYGDRNSWNTISFRTGAALRFPPIRANHSLDVSFYFRTSAPSGVFLENMGGPFCQWRRPYVRVELNTSRDVVFAFDIGNGDENLTVHSDDFEFNDDEWHLVRAEINVKQARLRVDHRPWVLRPMPLQTYIWLEYDQPLYVGSAELKRRPFVGCLRAMRLNGVTLNLEGRANASEGTFPNCTGHCTHPRFPCFHGGRCVERYSYYTCDCDLTAFDGPYCNHDIGGFFETGTWMRYNLQSALRSAAQEFSHMLSRPVPGYEPGYIPGYDTPGYVPGYHGPGYRLPDYPRPGRPVPGYRGPVYNVTGEEVSFSFSTSSAPAVLLYVSSFVRDYMAVLIKEDGTLQLRYQLGTSPYVYQLTTRPVTDGQPHSVNITRVYRNLFIQVDYFPLTEQKFSLLVDSQLDSPKALYLGRVMETGVIDPEIQRYNTPGFSGCLSGVRFNNVAPLKTHFRTPRPMTAELAEAMRVQGELSESNCGAMPRLVSEVPPELDPWYLPPDFPYYHDDGWIAILLGFLVAFLLLGLVGMLVLFYLQNHRYKGSYHTNEPKATHDSHPGGKAPLPPSGPAQAPAPTPAPTQVPTPAPAPASGPGPRDQNLPQILEESRSE", "binding": "binds"}
{"molecule": "proteolipid protein (protein, UniProt P60203 1-277) MGLLECCARCLVGAPFASLVATGLCFFGVALFCGCGHEALTGTEKLIETYFSKNYQDYEYLINVIHAFQYVIYGTASFFFLYGALLLAEGFYTTGAVRQIFGDYKTTICGKGLSATVTGGQKGRGSRGQHQAHSLERVCHCLGKWLGHPDKFVGITYALTVVWLLVFACSAVPVYIYFNTWTTCQSIAFPSKTSASIGSLCADARMYGVLPWNAFPGKVCGSNLLSICKTAEFQMTFHLFIAAFVGAAATLVSLLTFMIAATYNFAVLKLMGRGTKF", "binding": "binds"}
{"molecule": "Cnp (protein, UniProt P13233 1-420) MSTSFARKSHTFLPKIFFRKMSSSGAKDKPELQFPFLQDEDTVATLHECKTLFILRGLPGSGKSTLARLIVEKYHNGTKMVSADAYKIIPGSRADFSEEYKRLDEDLAGYCRRDIRVLVLDDTNHERERLDQLFEMADQYQYQVVLVEPKTAWRLDCAQLKEKNQWQLSLDDLKKLKPGLEKDFLPLYFGWFLTKKSSETLRKAGQVFLEELGNHKAFKKELRHFISGDEPKEKLDLVSYFGKRPPGVLHCTTKFCDYGKATGAEEYAQQDVVRRSYGKAFKLSISALFVTPKTAGAQVVLNEQELQLWPSDLDKPSSSESLPPGSRAHVTLGCAADVQPVQTGLDLLEILQQVKGGSQGEEVGELPRGKLYSLGKGRWMLSLAKKMEVKAIFTGYYGKGKPVPVHGSRKGGAMQICTII", "binding": "binds"}
{"molecule": "Thy1 (protein, UniProt P01830 20-130) QRVISLTACLVNQNLRLDCRHENNTNLPIQHEFSLTREKKKHVLSGTLGVPEHTYRSRVNLFSDRFIKVLTLANFTTKDEGDYMCELRVSGQNPTSSNKTINVIRDKLVKC", "binding": "binds"}
